Data published in paper PMC7189310.

Target: T1, Forkhead box A2 (FoxA2) (rat (endogenous in SD rat neural stem cells)) (UniProt P32182)
T1 sequence: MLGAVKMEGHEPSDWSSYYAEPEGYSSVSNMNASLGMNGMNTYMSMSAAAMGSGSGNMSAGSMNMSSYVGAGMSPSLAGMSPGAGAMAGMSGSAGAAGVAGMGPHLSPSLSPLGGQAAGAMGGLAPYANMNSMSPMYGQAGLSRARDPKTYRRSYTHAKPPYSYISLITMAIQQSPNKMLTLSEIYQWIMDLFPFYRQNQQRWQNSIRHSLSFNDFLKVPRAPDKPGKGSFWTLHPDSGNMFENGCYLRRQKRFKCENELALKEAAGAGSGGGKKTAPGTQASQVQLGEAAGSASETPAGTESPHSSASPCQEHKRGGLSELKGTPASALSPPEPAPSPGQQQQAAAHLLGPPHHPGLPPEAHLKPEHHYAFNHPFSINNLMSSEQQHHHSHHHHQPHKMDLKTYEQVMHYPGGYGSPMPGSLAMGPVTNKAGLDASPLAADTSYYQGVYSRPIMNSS
Assay: co-IP; Pierce Crosslink Magnetic IP/Co-IP Kit; mouse anti-FoxA2 antibody (5 μg per sample) crosslinked to protein A/G magnetic beads; cell protein of NSCs differentiated 5 days, control or PTE (30 μg/ml); TET1 detected by western blot

binding: binds
Substance: Ten-eleven translocation 1 (TET1)

These are yes or no findings as the source states them, for the method shown. Binding seen in cells or lysates may run through a third protein. A result given as binding can be weak or reduced; the word gives no strength.
